{"source": "PubChem BioAssay AID686943 (Drosophila RNAi Screening Center, 2013)", "test": "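Search across the genome for regulators of signalling from receptor tyrosine kinase to ERK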 (primary screen)", "cells": "Drosophila S2R+ haemocyte-like cells expressing YFP-tagged ERK (Rolled)", "reagents": "long dsRNA against Drosophila genes", "challenge": "insulin stimulation versus unstimulated cells; dose and duration not given", "measured": "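Per-plate z-scores of phospho-ERK immunostaining normalised to YFP-tagged ERK, measured with and without insulin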", "direction": "replicate 1, z-score of dpERK with insulin: higher = more active ERK per ERK-YFP after insulin", "note": "The deposit covers about 23,000 reagents; shown is a random part of those with a known target gene and a result. 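Extra replicates exist only for a retested subset of genes; insulin dose and duration not given; both raised and lowered dpERK matter.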 Names joined by + are all predicted targets of the reagent. Further read-outs or replicates are left out here. Reagent sequences are not shown. Not given: the amount of reagent, the time to read-out."}
{"Gene": "CSN4 (COP9 signalosome subunit 4)", "DRSC id": "DRSC07350", "replicate 1, z-score of dpERK with insulin": 0.26}
{"Gene": "CG12056", "DRSC id": "DRSC17796", "replicate 1, z-score of dpERK with insulin": -0.02}
{"Gene": "Neos (Neosin)", "DRSC id": "DRSC11235", "replicate 1, z-score of dpERK with insulin": 1.15}
{"Gene": "Lsp1beta (Larval serum protein 1 beta)", "DRSC id": "DRSC00757", "replicate 1, z-score of dpERK with insulin": 0.23}
{"Gene": "CG4854", "DRSC id": "DRSC15663", "replicate 1, z-score of dpERK with insulin": 0.27}
{"Gene": "CG7506", "DRSC id": "DRSC10860", "replicate 1, z-score of dpERK with insulin": 0.7}
{"Gene": "Mlp84B (Muscle LIM protein at 84B)", "DRSC id": "DRSC12596", "replicate 1, z-score of dpERK with insulin": -0.05}
{"Gene": "Pngl (PNGase-like)", "DRSC id": "DRSC04914", "replicate 1, z-score of dpERK with insulin": 0.09}
{"Gene": "Gbs-70E (Glycogen binding subunit 70E)", "DRSC id": "DRSC11055", "replicate 1, z-score of dpERK with insulin": -0.56}
{"Gene": "CG9662", "DRSC id": "DRSC00723", "replicate 1, z-score of dpERK with insulin": 0.04}
{"Gene": "Btk (Bruton tyrosine kinase)", "DRSC id": "DRSC02008", "replicate 1, z-score of dpERK with insulin": 0.79}
{"Gene": "Btk (Bruton tyrosine kinase)", "DRSC id": "DRSC02666", "replicate 1, z-score of dpERK with insulin": 0.75}
{"Gene": "Btk (Bruton tyrosine kinase)", "DRSC id": "DRSC22427", "replicate 1, z-score of dpERK with insulin": 0.3}
{"Gene": "CG3280 (retired record)", "DRSC id": "DRSC10356", "replicate 1, z-score of dpERK with insulin": -0.04}

Next part, starting with the last 2 of the part before.
{"Gene": "Btk (Bruton tyrosine kinase)", "DRSC id": "DRSC22427", "replicate 1, z-score of dpERK with insulin": 0.3}
{"Gene": "CG3280 (retired record)", "DRSC id": "DRSC10356", "replicate 1, z-score of dpERK with insulin": -0.04}
{"Gene": "CG6225", "DRSC id": "DRSC15996", "replicate 1, z-score of dpERK with insulin": -0.27}
{"Gene": "His2B:CG33870 + His2B:CG33868 + His2B:CG33882 + 21 more", "DRSC id": "DRSC03757", "replicate 1, z-score of dpERK with insulin": -5.24}
{"Gene": "Ran", "DRSC id": "DRSC20364", "replicate 1, z-score of dpERK with insulin": 0.89}
{"Gene": "mRpS22 (mitochondrial ribosomal protein S22)", "DRSC id": "DRSC14488", "replicate 1, z-score of dpERK with insulin": 1.04}
{"Gene": "CG12590", "DRSC id": "DRSC12216", "replicate 1, z-score of dpERK with insulin": 0.17}
{"Gene": "CG32112", "DRSC id": "DRSC09815", "replicate 1, z-score of dpERK with insulin": -0.03}
{"Gene": "Pex11c (Peroxin 11c)", "DRSC id": "DRSC14677", "replicate 1, z-score of dpERK with insulin": 0.48}
